This assay can be described thus: qHTS Assay for Lipid Storage Modulators in Drosophila S3 Cells.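 As to cell number change: cells counted by Cell Tracker Red CMTPX staining in the red channel.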 The conditions noted are these: BODIPY lipid droplet fluorescence, 18-24 h; for cell number change: measured here: cell count max response, cells fed with added oleic acid. In outline:
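Drosophila S3 cells loaded with oleic acid (400 uM, as added) and compounds at several concentrations; lipid droplets imaged by 488-nm laser-scanning cytometry, 500–530 nm intensity and object ratio to cell channel. Percent activity normalized to 20 uM Triacsin C.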

Where [1] appears, read: measured here: lipid fluorescence (Fed channel) AC50, cells fed with added oleic acid.
Setting [2] is: measured here: cell number channel AC50, cells fed with added oleic acid.

SMILES strings stand for the structures. Some of the results follow. These are further read-outs of the screen, such as a control signal, another cell line or another target. No call is given for them. Compounds called inactive in the main read-out are mostly missing here. The note in brackets gives the kind of curve behind each potency; many fits are weak.

With `O=C(COc1ccc2c(-c3ccccc3)cc(=O)oc2c1)NCCN1CCOCC1`, the cell number change turned out to be 26%. Usually AC50 stands for the midpoint of the concentration-response curve, whichever way the signal moves. Read a high AC50 as weaker potency. As for `CC(Sc1nccn1C)C(=O)c1ccc(Br)cc1` (centres undefined), the AC50 under setting [1] was 16.4 µM [falling, partial curve].

Regarding `Cc1ccc(S(=O)(=O)N2CCC(NC(=O)c3cccnc3)CC2)cc1Cl`, the cell number change is -7.69%. Besides, under setting [1], the AC50 was 29.1 µM [falling, single point]. `O=C(Cc1ccccc1F)OCC(=O)N1CCc2ccccc21`: the cell number change was -14.6%. In addition, the AC50 under setting [2] is 6.51 µM [rising, partial curve, poor fit]. With `CC(CNC(=O)CN1C(=O)C(=O)N(C2CCCC2)C1=O)c1ccccc1` (centres undefined), the cell number change stood at 12.2%. Also, the AC50 under setting [1] is 29.1 µM [rising, single point]. In the case of `Cc1ccccc1CSc1nnc(C)n1N`, the cell number change is 10.2%.

Take `COc1ccc(NCc2cc(=O)oc3cc(NC(C)=O)ccc23)cc1`: the cell number change came out at 24.1%. The AC50 under setting [1] is 7.31 µM [rising, partial curve].

As for `Cc1cccc2sc(N(CCCN(C)C)C(=O)c3ccc(C(=O)c4ccccc4)cc3)nc12`, under setting [1], the AC50 was 6.51 µM [rising, single point]. `Cc1ccc(C)c(NC(=S)N2CCN(CCO)CC2)c1`: the cell number change is -46.3%. For the same compound, under setting [2], the half-maximal activity concentration (AC50) was 1.46 µM [falling, full curve].

For `O=C(O)c1ccccc1OCC1CCCO1` (centres undefined), the cell number change amounted to 0.42%. Besides, the half-maximal activity concentration (AC50) under setting [1] was 29.1 µM [falling, single point]. Consider `CN(C)S(=O)(=O)Oc1ccsc1C(=O)Nc1cccc(Cl)c1`, for which the cell number change was -11.2%. Also, the concentration at half-maximal activity (AC50) under setting [1] is 3.66 µM [falling, partial curve, poor fit]. For `Cn1c(-c2c(N)n(C3CCCC3)c3nc4ccccc4nc23)nc2ccccc21`, the cell number change was -0.305%. In addition, the AC50 under setting [2] is 0.103 µM [falling, partial curve, poor fit]. Besides, under setting [1], the AC50 is 29.1 µM [falling, single point]. In the case of `C=CCc1ccc(OCc2ccc(C(=O)Nc3ccc(NC(C)=O)cc3)o2)c(OC)c1`, the cell number change was -49%. Also, the AC50 under setting [2] was 29.1 µM [falling, single point]. Moreover, the half-maximal activity concentration (AC50) under setting [1] was 20.6 µM [falling, single point]. As for `CCCC1(c2ccccc2)NC(=O)N(CC(=O)c2[nH]c(C)c(C(=O)OCC)c2C)C1=O` (centres undefined), under setting [1], the AC50 was 29.1 µM [falling, single point]. As for `Cn1cc(CN2CCC[C@H]2CO)c(-c2cccc(Cl)c2)n1`, the cell number change is 34.4%. Also, under setting [2], the AC50 was 8.2 µM [rising, partial curve]. Further, under setting [1], the AC50 is 0.259 µM [rising, full curve, poor fit]. With `Cc1cnc(NC(=O)CC2CCCC2)s1`, the cell number change is -2.49%. Besides, the AC50 under setting [2] is 2.31 µM [rising, partial curve, poor fit]. Moreover, the AC50 under setting [1] was 0.116 µM [rising, full curve, poor fit]. `CC(=O)N/C(=N\c1nc(C)cc(C)n1)Nc1ccccc1Cl`: the cell number change is -9.72%. Moreover, the AC50 under setting [1] was 0.58 µM [falling, single point].

For `CC(C)=CCCC(C)CN1CCC(n2nccc2NC(=O)c2cccnc2)CC1` (centres undefined), the cell number change was 9.18%. Under setting [1], the half-maximal activity concentration (AC50) is 11.6 µM [rising, partial curve, poor fit]. For `O=C(NCN1CCN(c2ccccn2)CC1)c1cnccn1`, the cell number change is -18.3%. The same measure, in the same setting: next, `CCCOc1ccc(C(=O)NNC(=S)NC(=O)c2cccs2)cc1`: -7.26%. Turning to `Cc1ccc(Nc2cc(C)c3c(O)cccc3n2)cc1C`, the cell number change was -32.3%. Moreover, under setting [2], the AC50 was 29.1 µM [falling, single point]. Moreover, under setting [1], the AC50 was 0.58 µM [falling, full curve]. Consider `CCCn1c(SCC(=O)Nc2cccc(Cl)c2Cl)n[nH]c1=O`, for which the cell number change was -27.2%. In the case of `CCCCOc1ccc(N=Cc2ccc[nH]2)cc1`, the cell number change stood at 9.38%. Also, the AC50 under setting [1] was 25.9 µM [falling, single point].

In the case of `CCN(CC)CCCNc1nc(-n2nc(C)cc2C)nc2sc3c(c12)CC(C)(C)OC3`, the cell number change was determined as 24.7%. Under setting [2], the AC50 is 1.64 µM [rising, partial curve, poor fit]. For the same compound, the AC50 under setting [1] is 4.61 µM [rising, partial curve, poor fit].

For the compound `COc1ccc2c(c1)C(=NNc1ccc(C(=O)O)cc1)c1cc(OC)ccc1-2`, the cell number change was determined as 12.1%.

With `COc1cc(/C=C(\NC(=O)c2ccccc2)C(=O)N2CC3CC(C2)c2cccc(=O)n2C3)cc(OC)c1OC` (centres undefined), the cell number change was -1.45%. In addition, the AC50 under setting [1] is 0.00517 µM [falling, full curve, poor fit]. On to `COc1cccc(NC(=O)Nc2cc(Cl)ccc2C)c1`, for which the cell number change is 7.12%. In addition, the AC50 under setting [2] is 3.26 µM [rising, single point]. On to `C=CCN1CCN(Cc2cnc(Cl)s2)CC1`, for which the cell number change is -95.7%. Moreover, under setting [2], the AC50 was 16.4 µM [falling, partial curve]. Further, under setting [1], the AC50 is 18.4 µM [falling, partial curve]. Regarding `COc1ccc2c(c1)c(=O)oc1cc(OCC(=O)N3CCC(C)CC3)ccc12`, the cell number change was -64.3%. Further, the half-maximal activity concentration (AC50) under setting [2] is 20.6 µM [falling, single point]. Turning to `COCCCNC(=O)c1ccccc1NS(=O)(=O)c1ccc(C)cc1`, the AC50 under setting [1] is 6.51 µM [rising, single point]. Turning to `COc1cc(NC(=O)C2C3C=CC(C3)C2C(=O)O)c(OC)cc1Cl` (centres undefined), the cell number change was 101%. For the same compound, the AC50 under setting [2] is 29.1 µM [rising, single point]. In the case of `S=c1nc(-c2ccccc2)n(Cc2ccco2)c2c1CCCC2`, the cell number change was -5.92%. Also, the AC50 under setting [1] is 32.6 µM [rising, single point].

As to `COc1cccc(NC(=O)CN(C)C(=O)c2ccc(-c3ccccc3Cl)o2)c1`, the cell number change came to 58.4%. For the same compound, the AC50 under setting [2] was 13 µM [rising, partial curve]. Further, the AC50 under setting [1] was 29.1 µM [rising, single point]. With `Cc1ccc(/C=C/c2ccc3cccc(O)c3n2)s1`, the cell number change worked out at 29.4%. Further, the AC50 under setting [1] is 29.1 µM [rising, single point]. As for `CCCn1c(=O)c(C(=O)Nc2ccccc2C(=O)OC)c(O)c2ccccc21`, the cell number change is 41.4%. Also, the AC50 under setting [2] was 29.1 µM [rising, single point]. In addition, under setting [1], the AC50 is 0.731 µM [rising, single point]. For the compound `COc1ccc(S(=O)(=O)N(C)CC(=O)N2CCOCC2)cc1`, the cell number change was -13.4%.

As for `Cn1nc(C(=O)NC2=NCCS2)ccc1=O`, the cell number change is -98.6%. Further, under setting [2], the AC50 was 25.9 µM [falling, partial curve]. Also, the AC50 under setting [1] is 1.84 µM [falling, partial curve]. For `CC1(C)Cc2c(cnn2-c2ccccc2)C(NC(=O)CCN2CCCCO2)C1` (centres undefined), the cell number change is -7.65%. In the case of `C=CCN(c1ccccc1OC)S(=O)(=O)c1cccc(C(=O)NCc2cccs2)c1`, the cell number change worked out at 434%. The AC50 under setting [2] was 23.1 µM [rising, partial curve]. For the compound `O=C1c2ccccc2-c2nc3ncnn3c(-c3ccccc3Cl)c21`, the cell number change came to 2.4%.

As for `CCn1c(=O)c2ccccc2n2c(SCC(=O)N3CCc4ccccc4C3)nnc12`, the cell number change was determined as 13.5%. For the compound `CC(=NCc1ccncc1)C1=C(O)c2ccccc2C1=O`, the cell number change was 31.3%. Under setting [2], the AC50 is 2.91 µM [rising, partial curve]. Also, the half-maximal activity concentration (AC50) under setting [1] was 6.51 µM [rising, single point]. Consider `N#Cc1c(N)n(-c2ccc(O)cc2)c2nc3ccccc3nc12`, for which the cell number change turned out to be 26.2%. `CCCCCCCCCCOC(=O)Cn1c(COc2ccc(C)cc2)[n+](C)c2ccccc21`: the cell number change was -38.9%. For the same compound, the AC50 under setting [2] was 4.61 µM [falling, full curve]. Further, the half-maximal activity concentration (AC50) under setting [1] is 11.6 µM [falling, partial curve].

With `Nc1c(-c2ccccc2)c(CSc2nc3ccccc3[nH]2)nn1-c1ccc(Cl)cc1`, the cell number change is -50%. Also, under setting [2], the AC50 was 2.06 µM [falling, full curve]. Take `CC(C)(C)c1ccc(S(=O)(=O)N2CCCCC2C(=O)NCc2ccccn2)cc1` (centres undefined): under setting [1], the AC50 was 0.731 µM [falling, single point]. For the compound `O=c1c2c(nc3nc(Cc4ccccc4)[nH]n13)CCC2`, the cell number change amounted to 6.2%. With `O=C(Cn1c(NCCO)nc2ccccc21)NCC1CCCO1` (centres undefined), the cell number change worked out at 61.4%. Besides, the concentration at half-maximal activity (AC50) under setting [2] is 25.9 µM [rising, partial curve, poor fit]. Further, under setting [1], the AC50 is 0.82 µM [rising, full curve, poor fit]. Consider `OC1c2cc(Br)ccc2N=C2CCCN21` (centres undefined), for which the cell number change is -2.78%. Consider `O=C(COc1ccc2c(-c3ccccc3)cc(=O)oc2c1)NC1CCS(=O)(=O)C1` (centres undefined), for which the cell number change is -6.34%. The AC50 under setting [2] is 0.517 µM [falling, partial curve]. In addition, the concentration at half-maximal activity (AC50) under setting [1] is 0.58 µM [falling, partial curve]. Take `CN1CCCN(C(=O)CC(c2ccccc2)c2ccccc2)CC1`: the cell number change was -37.7%. Also, the AC50 under setting [2] was 2.91 µM [falling, single point]. Consider `COCCN(C(=O)c1ccc(N2C(=O)c3ccccc3C2=O)cc1)c1c(N)n(CC(C)C)c(=O)[nH]c1=O`, for which the cell number change was -31.5%. The AC50 under setting [2] was 16.4 µM [falling, partial curve, poor fit]. Also, under setting [1], the AC50 was 8.2 µM [falling, partial curve]. As for `c1ccc(-c2cc(N3CCCCCC3)n[nH]2)cc1`, the cell number change came out at 199%. The AC50 under setting [2] was 13 µM [rising, partial curve]. Moreover, under setting [1], the AC50 was 23.1 µM [rising, single point]. `COc1cccc2sc(=NC(=O)CS(=O)(=O)c3ccc(Cl)cc3)n(C)c12`: the cell number change is 113%. Moreover, the AC50 under setting [2] was 20.6 µM [rising, partial curve]. In the case of `O=C(c1ccc(-c2ccc(Cl)cc2)o1)N1CCN(S(=O)(=O)c2cccs2)CC1`, the cell number change is -21.3%. For the same compound, under setting [1], the AC50 is 0.411 µM [falling, full curve, poor fit].

Turning to `COC(=O)CC/C(O)=C1/C(=N)CC(C)(C)CC1=O`, the cell number change was determined as 9.97%.

`CCOC(=O)C1CCN(Cc2nc3ccc([N+](=O)[O-])cc3c(=O)n2-c2ccc(OC)cc2OC)CC1`: the cell number change was determined as 17.9%. In addition, the AC50 under setting [1] was 1.46 µM [rising, partial curve, poor fit]. With `CCCCn1c(N)c(N(CCOC)C(=O)c2ccc(-c3ccc(Cl)cc3)o2)c(=O)[nH]c1=O`, the cell number change turned out to be 44.4%. For the same compound, the half-maximal activity concentration (AC50) under setting [2] is 16.4 µM [rising, partial curve]. With `Cc1cc(Cl)c2oc(C(=O)NCCC3CCCCO3)c(C)c2c1` (centres undefined), the cell number change is -4.67%. In the case of `COc1ccc(/C=C2\CCc3ccccc3C2=O)cc1OC`, the cell number change is -30%. Moreover, the AC50 under setting [2] was 20.6 µM [falling, single point]. The AC50 under setting [1] was 23.1 µM [falling, single point]. Turning to `COc1cc(-c2nnc(COC(=O)c3nn(CC(C)C)c(=O)c4ccccc34)o2)cc(OC)c1OC`, the AC50 was 0.13 µM [rising, full curve, poor fit] under setting [2] and 0.731 µM [rising, full curve] under setting [1].

For the origin of these results see PubChem BioAssay AID2685 (National Center for Advancing Translational Sciences (NCATS), 2010).
